Assay results taken from article PMC2646837.
These are yes or no findings as the source states them, for the method shown. Tags and fused reporters may be left off the sequences shown.

Biological target: Endo-β-N-acetylglucosaminidase A from Arthrobacter protophormiae (Arthrobacter protophormiae) (UniProt Q9ZB22)
Experiment: crystal structure; methylated native Endo-A, space group P1, four molecules in the asymmetric unit, refined at 2.0 Å; crystals from PEG 8000, calcium acetate, glycerol; both purified

B1: Endo-β-N-acetylglucosaminidase A from Arthrobacter protophormiae (enzyme, UniProt Q9ZB22 25-645)
chain: STYNGPLSSHWFPEELAQWEPDSDPDAPFNRSHVPLEPGRVANRVNANADKDAHLVSLSALNRHTSGVPSQGAPVFYENTFSYWHYTDLMVYWAGSAGEGIIVPPSADVIDASHRNGVPILGNVFFPPTVYGGQLEWLEQMLEQEEDGSFPLADKLLEVADYYGFDGWFINQETEGADEGTAEAMQAFLVYLQEQKPEGMHIMWYDSMIDTGAIAWQNHLTDRNKMYLQNGSTRVADSMFLNFWWRDQRQSNELAQALGRSPYDLYAGVDVEARGTSTPVQWEGLFPEGEKAHTSLGLYRPDWAFQSSETMEAFYEKELQFWVGSTGNPAETDGQSNWPGMAHWFPAKSTATSVPFVTHFNTGSGAQFSAEGKTVSEQEWNNRSLQDVLPTWRWIQHGGDLEATFSWEEAFEGGSSLQWHGSLAEGEHAQIELYQTELPISEGTSLTWTFKSEHGNDLNVGFRLDGEEDFRYVEGEQRESINGWTQWTLPLDAFAGQTITGLAFAAEGNETGLAEFYIGQLAVGADSEKPAAPNVNVRQYDPDPSGIQLVWEKQSNVHHYRVYKETKHGKELIGTSAGDRIYLEGLVEESKQNDVRLHIEALSETFVPSDARMIDIKSGSF
modifications: methylated (the protein of the 2.0 Å refined model; residues not stated)
In the case of B1, the binding is reported as “no binding”.
